Laboratory results published in PMC9113592.
No constants are given. Whether binding was seen depends on the method and setting. Binding seen in cells or lysates may run through a third protein. Binding can be weak; no strength is given.

The chains behind the UniProt entries cited, without tags or fusion partners. Where a name states a change or a piece, a line headed by the entry shows the natural chain unless it says otherwise.
UniProt Q580G6: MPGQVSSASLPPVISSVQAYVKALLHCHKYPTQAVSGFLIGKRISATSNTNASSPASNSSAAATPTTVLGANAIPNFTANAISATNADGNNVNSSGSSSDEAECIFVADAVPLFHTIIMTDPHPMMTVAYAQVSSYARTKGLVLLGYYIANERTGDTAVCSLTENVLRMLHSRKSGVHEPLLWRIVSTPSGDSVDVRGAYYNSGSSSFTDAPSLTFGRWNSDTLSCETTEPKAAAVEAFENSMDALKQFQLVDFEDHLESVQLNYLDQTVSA
UniProt Q38BC5: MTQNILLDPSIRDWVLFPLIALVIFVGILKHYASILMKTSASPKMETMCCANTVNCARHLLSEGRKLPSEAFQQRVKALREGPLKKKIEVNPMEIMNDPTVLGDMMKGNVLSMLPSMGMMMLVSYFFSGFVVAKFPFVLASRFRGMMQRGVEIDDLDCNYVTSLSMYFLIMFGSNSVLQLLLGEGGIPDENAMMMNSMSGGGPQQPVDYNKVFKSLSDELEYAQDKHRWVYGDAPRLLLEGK

Columns and labels:
[1] = molecular target: TbEMC8-cMyc (Trypanosoma brucei) (UniProt Q580G6); assay: co-IP; lysates of T. brucei procyclic forms co-expressing one HA-tagged and one cMyc-tagged TbEMC; 10 mM Tris-HCl pH 7.4, 150 mM NaCl, 1 mM EDTA, 1% Triton X-100, 0.5% NP-40; anti-HA or anti-cMyc antibody with Protein G Dynabeads, 16 h; SDS-PAGE and immunoblot; both directions
[2] = molecular target: TbEMC3-HA (Trypanosoma brucei) (UniProt Q38BC5); assay: as above

binding [1] | binding [2] | Substance
binds weakly | – | TbEMC3-HA (from UniProt Q38BC5)
– | binds | TbEMC8-cMyc (from UniProt Q580G6)
